According to patent US20250346890A1, “LEUKEMIA TREATMENT” (Deutsches Krebsforschungszentrum, priority 2019, published 2025):
No constants are given. Whether binding was seen depends on the method and setting. Some binding calls cover weakened binding; strength is not graded here.

Chains of the proteins cited; added tags and fusions are not shown. Residues count along the entry.
UniProt P36894, residues 24-532: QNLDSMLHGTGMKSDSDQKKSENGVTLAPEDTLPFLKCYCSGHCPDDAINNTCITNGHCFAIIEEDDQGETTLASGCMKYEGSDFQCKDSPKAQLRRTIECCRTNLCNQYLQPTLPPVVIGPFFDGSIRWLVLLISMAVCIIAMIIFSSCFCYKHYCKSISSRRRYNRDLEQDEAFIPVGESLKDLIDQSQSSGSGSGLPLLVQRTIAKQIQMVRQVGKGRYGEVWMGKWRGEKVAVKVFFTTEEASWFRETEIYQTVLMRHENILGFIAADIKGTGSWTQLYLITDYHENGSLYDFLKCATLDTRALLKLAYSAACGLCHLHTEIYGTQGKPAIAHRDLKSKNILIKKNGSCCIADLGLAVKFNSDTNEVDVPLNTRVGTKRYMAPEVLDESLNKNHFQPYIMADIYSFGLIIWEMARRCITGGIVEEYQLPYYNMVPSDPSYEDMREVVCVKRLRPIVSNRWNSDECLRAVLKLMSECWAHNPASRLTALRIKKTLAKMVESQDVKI

Target: human ALK3-HA expressed in HEK293T cells (human) (UniProt P36894)
Experiment: cell surface binding assay on HEK293T cells transfected with human ALK3-HA

binding: binds
B1: RSPO2^ΔFU (human RSPO2 Furin1 and Furin2 deletion mutant) (ligand, not shown: small tags and cut ends)
chain: GCEVGHWSEWGTCSRNNRTCGFKWGLETRTRQIVKKPVKDTILCPTIAESRRCKMTMRHCP
